# Assay results published in PubChem BioAssay AID192 (DTP/NCI, 2004).
# The list is a part of this screen's results and no random one: it gathers tests that were run many times, whatever their T/C, doses with no T/C, and many T/C values between a quarter and a half above the control. Further doses and runs are listed elsewhere. T/C gives the treated animals as a percentage of the vehicle group. Some entries give survivors of the animals treated and no T/C: the source files T/C as zero there, which appears to mark a toxic dose or a test without result, not a measured value. Some survivor counts are full or nearly so, which does not show that the dose was tolerated: the source hardly ever lists a survival T/C far under the control, and the zero likely stands for such cases as well. Survivors were counted at the toxicity check, usually on the fifth day, unless a day is given; later deaths do not show. Schedules are NCI's codes, read here as Q, the interval in days (D) or hours (H), X, the number of doses. Some entries were tested several times; the values are given in rising order. For survival time, the PubChem record calls one and a half times the control and up active, and a quarter to a half above the control has no call in these data; cut-offs in other NCI protocols can differ. Some T/C values carry the count of animals alive at the toxicity check (mostly the fifth day); without a count, all were alive then.
# Test system: BDF1 mice, B16 melanoma ip, median survival T/C
# Assay: NCI In Vivo Anticancer Drug Screen. Data for tumor model B16 Melanoma (intraperitoneal) in B6D2F1 (BDF1) mice
# Conditions: T/C endpoint: median survival time, higher T/C = longer survival
# Outline: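 Survival or tumor size is measured after treatment of tumor-bearing mice and normalised to the vehicle-treated control group.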
# [1] = dose: 200.0 mg/kg/injection, schedule: Q04DX003 (ip), vehicle: Klucel (hydroxypropylcellulose) (HPC)
# [2] = dose: 400.0 mg/kg/injection, schedule: Q04DX003 (ip), vehicle: Klucel (hydroxypropylcellulose) (HPC)
# [3] = dose: 200.0 mg/kg/injection, schedule: Q01DX009 (ip), vehicle: Klucel (hydroxypropylcellulose) (HPC)
# [4] = dose: 200.0 mg/kg/injection, schedule: Q01DX009 (ip), vehicle: saline with Tween-80
# [5] = dose: 400.0 mg/kg/injection, schedule: Q01DX009 (ip), vehicle: saline with Tween-80
# [6] = dose: 100.0 mg/kg/injection, schedule: Q01DX009 (ip), vehicle: saline with Tween-80
# [7] = dose: 2.5 mg/kg/injection, schedule: Q01DX009 (ip), vehicle: Klucel (hydroxypropylcellulose) (HPC)
# [8] = dose: 25.0 mg/kg/injection, schedule: Q01DX009 (ip), vehicle: saline
# [9] = dose: 50.0 mg/kg/injection, schedule: Q01DX009 (ip), vehicle: saline
# [10] = dose: 300.0 mg/kg/injection, schedule: Q01DX009 (ip), vehicle: Klucel (hydroxypropylcellulose) (HPC)
# [11] = dose: 100.0 mg/kg/injection, schedule: Q01DX009 (ip), vehicle: Klucel (hydroxypropylcellulose) (HPC)
# [12] = dose: 400.0 mg/kg/injection, schedule: Q01DX009 (ip), vehicle: Klucel (hydroxypropylcellulose) (HPC)
# [13] = dose: 10.0 mg/kg/injection, schedule: Q01DX009 (ip), vehicle: Klucel (hydroxypropylcellulose) (HPC)
# [14] = dose: 6.25 mg/kg/injection, schedule: Q01DX009 (ip), vehicle: Klucel (hydroxypropylcellulose) (HPC)
# [15] = dose: 4.0 mg/kg/injection, schedule: Q01DX009 (ip), vehicle: saline
# [16] = dose: 200.0 mg/kg/injection, schedule: Q01DX009 (ip), vehicle: saline
compound,measurement,setting,value
Cc1cccc(C)c1NC(=O)Nc1ccc2c(c1)OCO2,survivor count,[1],10 of 10
same,survivor count,[2],10 of 10
C[C@]12CC[C@H](O)C[C@@H]1CC[C@@H]1[C@@H]2C(=O)C[C@@]2(C)[C@H]1CC[C@]2(O)C(=O)CBr,survivor count,[3],4 of 6
O=C(CCN1CCCCC1)c1cccc([N+](=O)[O-])c1,survivor count,[1],2 of 10
same,survivor count,[2],0 of 10
COc1cccc2c1C(=O)c1c(O)c3c(c(O)c1C2=O)CC(O)(/C(C)=N/NC(=O)CCC(=O)N/N=C(\C)C1(O)Cc2c(O)c4c(c(O)c2C(OC2CC(N)C(O)C(C)O2)C1)C(=O)c1c(OC)cccc1C4=O)CC3OC1CC(N)C(O)C(C)O1 (configuration not stated),T/C,"dose: 2.0 mg/kg/injection, schedule: Q01DX001 (ip), vehicle: water",128 % of control
same,T/C,"dose: 4.0 mg/kg/injection, schedule: Q01DX001 (ip), vehicle: water",140 % of control
same,T/C,"dose: 16.0 mg/kg/injection, schedule: Q01DX001 (ip), vehicle: water",146 % of control
same,survivor count,"dose: 64.0 mg/kg/injection, schedule: Q01DX001 (ip), vehicle: water",10 of 10
same,survivor count,"dose: 128.0 mg/kg/injection, schedule: Q01DX001 (ip), vehicle: water",3 of 10
CCOC(=O)c1ccc(NS(=O)c2ccccc2)cc1 (configuration not stated),survivor count,[4],9 of 10
same,survivor count,[5],8 of 10
Cc1c2cc(Cl)c3ccccc3c2c[n+]2ccccc12,survivor count,[6],8 of 10
c1ccc2c(NCCCCCCNc3c4ccccc4nc4ccccc34)c3ccccc3nc2c1,T/C,"dose: 0.62 mg/kg/injection, schedule: Q01DX009 (ip), vehicle: Klucel (hydroxypropylcellulose) (HPC)",127 % of control [9 of 10 alive]
same,T/C,[7],142 % of control
same,T/C,"dose: 5.0 mg/kg/injection, schedule: Q01DX009 (ip), vehicle: Klucel (hydroxypropylcellulose) (HPC)",143 % of control
CN(C)CCOC(c1ccccc1)c1ccccc1,survivor count,[8],10 of 10
same,survivor count,[9],10 of 10
O=[N+]([O-])c1cc([N+](=O)[O-])c(Nn2c3ccccc3c3ccccc32)c([N+](=O)[O-])c1,survivor count,[6],1 of 6
O=[N+]([O-])c1ccc(O)c(N=Cc2ccc(C=Nc3cc([N+](=O)[O-])ccc3O)cc2)c1,survivor count,[10],10 of 10
Cc1ccc(Cl)cc1NC(=O)COc1ccc(Cl)cc1,survivor count,[11],10 of 10
same,survivor count,[3],10 of 10
same,survivor count,[12],9 of 10
CCOc1c(Br)cc(Br)cc1/C=N/NS(=O)(=O)c1ccc(C)cc1,survivor count,"dose: 75.0 mg/kg/injection, schedule: Q04DX003 (ip), vehicle: Klucel (hydroxypropylcellulose) (HPC)",10 of 10
same,survivor count,[11],10 of 10
same,survivor count,"dose: 115.0 mg/kg/injection, schedule: Q04DX003 (ip), vehicle: Klucel (hydroxypropylcellulose) (HPC)",10 of 10
same,survivor count,"dose: 255.0 mg/kg/injection, schedule: Q04DX003 (ip), vehicle: Klucel (hydroxypropylcellulose) (HPC)",9 of 10
same,survivor count,"dose: 385.0 mg/kg/injection, schedule: Q04DX003 (ip), vehicle: Klucel (hydroxypropylcellulose) (HPC)",10 of 10
Clc1ccc(C(c2ccccc2Cl)C(Cl)Cl)cc1 (configuration not stated),survivor count,[5],6 of 6
CCCCCCCCCCCCCC[S+](C)C,survivor count,"dose: 6.25 mg/kg/injection, schedule: Q01DX009 (ip), vehicle: saline",10 of 10
same,survivor count,"dose: 12.5 mg/kg/injection, schedule: Q01DX009 (ip), vehicle: saline",9 of 10
same,survivor count,[8],1 of 10
same,survivor count,[9],0 of 10
CC1(c2ccc(N(CCCl)CCCl)cc2)NC(=O)NC1=O (configuration not stated),survivor count,[7],10 of 10
same,T/C,[13],132 % of control [9 of 10 alive]
same,survivor count,[13],10 of 10
same,survivor count,"dose: 150.0 mg/kg/injection, schedule: Q01DX009 (ip), vehicle: Klucel (hydroxypropylcellulose) (HPC)",9 of 10
same,survivor count,[10],8 of 10
CC(=O)Nc1ccc([N+](=O)[O-])cc1,survivor count,[4],10 of 10
same,survivor count,[5],7 of 10
CC(=O)OCc1cc(=O)n(C)c2c3c4c(cc12)c(C)cc(=O)n4CO3,T/C,[14],126 % of control
same,T/C,"dose: 12.5 mg/kg/injection, schedule: Q01DX009 (ip), vehicle: Klucel (hydroxypropylcellulose) (HPC)",129 % of control
same,T/C,"dose: 25.0 mg/kg/injection, schedule: Q01DX009 (ip), vehicle: Klucel (hydroxypropylcellulose) (HPC)",138 % of control
same,T/C,"dose: 50.0 mg/kg/injection, schedule: Q01DX009 (ip), vehicle: Klucel (hydroxypropylcellulose) (HPC)",138 and 140 % of control
same,survivor count,[11],8 of 10 and 10 of 10
same,survivor count,[3],0 of 10
CCC(C)C(=O)O[C@H]1C(=O)O[C@@H]2C[C@H]3C(C)=CC(=O)[C@@H](O)[C@]3(C)[C@H]3[C@@H](O)[C@H](O)[C@@]4(C)OC[C@]32[C@@H]14 (some centres not stated),T/C,"dose: 0.5 mg/kg/injection, schedule: Q01DX009 (ip), vehicle: saline",134 % of control [9 of 10 alive]
same,T/C,"dose: 1.0 mg/kg/injection, schedule: Q01DX009 (ip), vehicle: saline",145 % of control [8 of 10 alive]
same,T/C,"dose: 2.0 mg/kg/injection, schedule: Q01DX009 (ip), vehicle: saline",144 % of control
same,T/C,[15],146 % of control
CC[CH2][Sn]([Cl])([Cl])[CH2]CC,survivor count,"dose: 1.0 mg/kg/injection, schedule: Q01DX009 (ip), vehicle: saline with Tween-80",6 of 6
same,survivor count,"dose: 2.0 mg/kg/injection, schedule: Q01DX009 (ip), vehicle: saline with Tween-80",6 of 6
same,survivor count,"dose: 4.0 mg/kg/injection, schedule: Q01DX009 (ip), vehicle: saline with Tween-80",5 of 6
same,survivor count,[15],6 of 10 and 9 of 10
same,survivor count,"dose: 8.0 mg/kg/injection, schedule: Q01DX009 (ip), vehicle: saline with Tween-80",0 of 6
CCC[CH2][Pb]([CH2]CCC)([CH2]CCC)[O]C(=O)CCl,survivor count,"dose: 3.13 mg/kg/injection, schedule: Q01DX009 (ip), vehicle: Klucel (hydroxypropylcellulose) (HPC)",10 of 10
same,survivor count,[14],9 of 10
COc1cc2c(cc1OC)[C@H]1CNC[C@H]1[C@@H](c1ccccc1)C2,survivor count,[16],7 of 10
NC(N)=NC1=NC(=O)CS1,survivor count,[12],10 of 10
CS(C)=O,survivor count,"dose: 6.0 grams/kg/injection, schedule: Q01DX009 (ip), vehicle: saline",10 of 10
c1ccc(CN2CCOC2)cc1,survivor count,[16],7 of 10
same,survivor count,"dose: 400.0 mg/kg/injection, schedule: Q01DX009 (ip), vehicle: saline",0 of 10
